Values from PubChem BioAssay AID1259308 (NCATS, 2017)
Test: 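Candidate targets for better recombinant protein yield in mammalian cells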 (primary screen). Cell system: human HEK293 embryonic kidney cells stably expressing firefly luciferase (HEK-CMV-Luc2-Hygro). Knock-down reagent: single siRNA against human genes, 0.8 pmol siRNA per well. Time to read-out: 72 h. Read-out: 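Luciferase light (ONE-Glo) measured on one replicate plate set and viability (CellTiter-Glo) on the other, scaled to a negative control siRNA, with robust z-scores and luciferase per cell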. Direction: total luciferase, z-score and total luciferase, % of control: higher = more reporter protein produced; luciferase per cell, z-score: higher = more reporter output per viable cell; viable cells, % of control: higher = more viable cells. Active means: 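An siRNA counts as active if its total luciferase robust z-score exceeds 3; genes with two or more such siRNAs out of three were retested with fresh siRNAs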. Meaning of the calls: active = raised luciferase; inactive = no rise.
The deposit covers about 59,000 reagents; below is an unselected part. About 1,510 of all reagents (2.6%) were called active. 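Calls use total luciferase alone and ignore viability, so some active siRNAs may act by altering cell number.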 Unmarked entries are inactive. The numbers tell different reagents against one gene apart.

Target gene	reagent	total luciferase, z-score	total luciferase, % of control	luciferase per cell, z-score	viable cells, % of control
GPR42	1	-1.42	53.6	-1.18	81.7
GPR42	2	0.115	84.2	-0.143	97.7
GPR42	3	0.0854	83.6	0.0743	91.6
SLC35B2	1	-0.589	70.2	-0.367	86.4
SLC35B2	2	-0.07	80.5	-0.0636	91.5
SLC35B2	3	-1.65	49.1	-2.17	97.1
ADARB1	1	1.14	105	1.21	84.9
ADARB1	2	-0.711	67.7	-1.13	102
ADARB1	3	-0.759	66.8	-1.09	99.5
ZNF792	1	2.57	133	2.9	69.2
ZNF792	2	-0.225	77.4	-0.529	99.4
ZNF792	3	-1.03	61.5	-1.88	113
CRYZL1	1	0.206	86	-0.302	104
CRYZL1	2	2.15	125	3.1	61.6
CRYZL1	3	2.44	130	1.37	101
ARHGAP8	1	-0.746	67.1	-0.826	93.1
ARHGAP8	2	0.0759	83.4	-0.3	101
ARHGAP8	3	-0.0959	80	-1.35	127
SEMA4G	1	1.57	113	1.34	88.8
SEMA4G	2	-0.0974	79.9	-0.685	107
SEMA4G	3	3.21 (active)	146	2.04	95
SMU1	1	0.0207	82.3	2.93	42.5
SMU1	2	0.663	95.1	1.72	67.6
SMU1	3	0.317	88.2	2.28	54.1
CENPU	1	-0.871	64.6	-0.0816	73.7
CENPU	2	0.838	98.6	0.362	100
CENPU	3	0.78	97.4	0.908	85.7
LASP1	1	-0.424	73.4	-1.08	109
LASP1	2	-2.03	41.6	-2.09	80.5
LASP1	3	0.527	92.4	0.721	85.4
PAQR5	1	-1.15	58.9	-0.981	85.2
PAQR5	2	0.0672	83.2	0.13	89.9
PAQR5	3	2.34	128	1.58	94.7
IRX2	1	-0.275	76.4	0.748	70.1
IRX2	2	-0.531	71.3	-0.205	84.1
IRX2	3	1.53	112	2.52	64.6
RPL34	1	-2.77	26.8	-1.46	43.9
RPL34	2	-2.98	22.7	-0.905	32.1
RPL34	3	-2.56	31	-1.5	51.4
RNF44	1	2.84	138	1.37	108
RNF44	2	0.869	99.2	1.58	73.2
RNF44	3	-0.219	77.5	-0.512	99.1
LRRC18	1	-0.216	77.6	0.238	81.4
LRRC18	2	1.46	111	1.05	94.1
LRRC18	3	-0.179	78.3	0.084	85.6
ABCG2	1	-0.0938	80	-0.511	102
ABCG2	2	0.868	99.2	1.28	79.2
ABCG2	3	1.22	106	0.598	101

Already shown: entries from further up.
Target gene	reagent	total luciferase, z-score	total luciferase, % of control	luciferase per cell, z-score	viable cells, % of control
RPL34	1	-2.77	26.8	-1.46	43.9
RPL34	2	-2.98	22.7	-0.905	32.1
RPL34	3	-2.56	31	-1.5	51.4

The listing continues:
Target gene	reagent	total luciferase, z-score	total luciferase, % of control	luciferase per cell, z-score	viable cells, % of control
FOXB2	1	0.767	97.1	0.609	92.5
FOXB2	2	-1.56	50.8	-0.843	70.9
FOXB2	3	0.85	98.8	2.11	63.4
ZNF264	1	-1.03	61.5	-0.335	75
ZNF264	2	-2	42.1	-1.44	68.8
ZNF264	3	-0.12	79.5	0.339	81.3
CLK2	1	0.338	88.6	-0.0841	101
CLK2	2	-0.589	70.2	-1.03	103
CLK2	3	0.0796	83.5	-0.432	105
POLR3C	1	-0.925	63.5	-0.916	90.3
POLR3C	2	1.05	103	0.896	90.7
POLR3C	3	-2.08	40.6	-1.94	75.5
CA4	1	-0.19	78.1	-0.456	98.4
CA4	2	0.00447	82	0.602	78.2
CA4	3	0.168	85.2	-0.634	113
UNC5B-AS1	1	-0.431	73.3	-0.408	91.2
UNC5B-AS1	2	0.978	101	0.762	92.6
UNC5B-AS1	3	0.226	86.4	0.0405	95.5
SPATA13	1	-0.261	76.7	1.44	58.7
SPATA13	2	-0.953	62.9	-0.763	86
SPATA13	3	3.74 (active)	156	2.68	86.3
TRH	1	-0.544	71.1	-0.491	90.4
TRH	2	-0.0131	81.6	1.09	68.5
TRH	3	2.75	137	2.06	88.7
SVBP	1	2.07	123	1.65	89.1
SVBP	2	-0.379	74.3	0.601	70.9
SVBP	3	4.83 (active)	178	3.5	79.2
